From US20060240015A1
Numbering of substitutions follows the chain as printed. These are yes or no findings as the source states them, for the method shown. Some entries that bind do so weakly or less than the wild type.

Protein sequences, listed by entry. Tags and fused reporters are not part of them. Residues count along the entry.
UniProt P05019, residues 49-118: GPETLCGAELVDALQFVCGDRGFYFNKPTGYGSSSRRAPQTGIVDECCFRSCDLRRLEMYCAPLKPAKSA
UniProt P01344, residues 25-91: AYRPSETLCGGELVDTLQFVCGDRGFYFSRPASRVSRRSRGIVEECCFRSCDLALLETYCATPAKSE

Columns and labels:
[1] = biological target: human insulin-like growth factor-I (human) (UniProt P05019); experiment: SPR (Biacore 2000)
[2] = biological target: human insulin-like growth factor-II (human) (UniProt P01344); experiment: SPR (Biacore 2000)
[3] = biological target: human insulin-like growth factor-II (human) (UniProt P01344); experiment: summary of Biacore
[4] = biological target: human insulin-like growth factor-I (human) (UniProt P05019); experiment: binding ELISA on coated mBSA-hIGF-I
[5] = biological target: human insulin-like growth factor-I (human) (UniProt P05019); experiment: summary of binding ELISA and Biacore

Measured: binding

B1: anti-hIGF CDR-grafted antibody QGAR/PLDFT (antibody, human IgG1, V domains shown)
VH: EVQLVESGGGVVQPGRSLRLSCAASGFTFSNYYMTWVRQAPTKGLEWVAYISSGGGSTYYRDSVKGRFTISRDNSKNTLYLQMNSLRAEDTAVYYCTTEDYGYWFAYWGQGTLVTVSS
VL: DIVMTQSPDSLAVSLGERATINCRASSSVSYMHWYQQKPGQSPKPLIYGTSKLASGVPDRFSGSGSGTSYSLTISSLQAEDVAVYYCLQRSSYPPTFGQGTKVEIK
binds: all assays above

B2: anti-hIGF CDR-grafted antibody QGAR/PLLDFT (antibody, human IgG1, V domains shown)
VH: B1 VH
VL: B1 VL with L46W
binds: all assays above
